Molecules are shown by their SMILES. In brackets after ≈: the same amount, converted by molar mass.

Results on one compound are retold here after ChEMBL document CHEMBL4145659, “Discovery of a Series of Indole-2 Carboxamides as Selective Secreted Phospholipase A2 Type X (sPLA2-X) Inhibitors” (ACS Med Chem Lett, 2018).

The series can be described thus: physchem.

Turning to `NC(=O)c1cc2ccc(OC(F)(F)F)cc2n1-c1cccc(CCC(=O)O)c1`, the solubility (as a rule, how much of the substance goes into solution per volume) at 24 h was found to be 98 µM (≈ 38.4 µg/mL).
